# Data taken from the supplement of paper PMC8728848.
# This is one part of the list.
# Assays:
# Test in all cases: glycan array binding signal (z-score within array); higher = stronger binding
# Settings in all cases: glycan notation: IUPAC condensed, linker removed
# [1] = biological target: Gal(b1-4)GlcNAc(b1-2)Man(a1-3)[Gal(b1-4)GlcNAc(b1-2)Man(a1-6)]Man(b1-4)GlcNAc(b1-4)[Fuc(a1-6)]GlcNAc
# Summary of the method: (§1)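 Arrays were curated from the Consortium for Functional Glycomics database, 3228 in total, and kept only where the protein sequence was available. Binding is expressed as a within-array Z-score. This score was averaged across arrays of the same protein sequence at different concentrations or buffers and across linkers, and negative values can be read as non-binding.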
# [2] = biological target: Gal(b1-4)GlcNAc(b1-2)Man(a1-3)[Gal(b1-4)GlcNAc(b1-2)Man(a1-6)][Gal(b1-4)GlcNAc(b1-4)]Man(b1-4)GlcNAc(b1-4)[Fuc(a1-6)]GlcNAc
# Summary of the method: as §1
# [3] = biological target: Gal(b1-4)GlcNAc(b1-2)Man(a1-3)[Gal(b1-4)GlcNAc(b1-2)Man(a1-6)][GlcNAc(b1-4)]Man(b1-4)GlcNAc(b1-4)[Fuc(a1-6)]GlcNAc
# Summary of the method: as §1
# [4] = biological target: Gal(b1-4)GlcNAc(b1-2)Man(a1-3)[GlcNAc(b1-2)Man(a1-6)]Man(b1-4)GlcNAc(b1-4)GlcNAc
# Summary of the method: as §1
# [5] = biological target: Gal(b1-4)GlcNAc(b1-2)Man(a1-3)[GlcNAc(b1-4)][Gal(b1-4)GlcNAc(b1-2)Man(a1-6)]Man(b1-4)GlcNAc(b1-4)GlcNAc
# Summary of the method: as §1
# [6] = biological target: Gal(b1-4)GlcNAc(b1-2)Man(a1-3)[Man(a1-6)]Man(b1-4)GlcNAc(b1-4)GlcNAc
# Summary of the method: as §1
# [7] = biological target: Gal(b1-4)GlcNAc(b1-2)Man(a1-6)Man(b1-4)GlcNAc(b1-4)GlcNAc
# Summary of the method: as §1
# [8] = biological target: Gal(b1-4)GlcNAc(b1-2)Man(a1-6)[GlcNAc(b1-2)Man(a1-3)]Man(b1-4)GlcNAc(b1-4)GlcNAc
# Summary of the method: as §1
# [9] = biological target: Gal(b1-4)GlcNAc(b1-2)Man(a1-6)[Man(a1-3)]Man(b1-4)GlcNAc(b1-4)GlcNAc
# Summary of the method: as §1
# [10] = biological target: Gal(b1-4)GlcNAc(b1-2)[Gal(b1-4)GlcNAc(b1-4)]Man(a1-3)[Gal(b1-4)GlcNAc(b1-2)Man(a1-6)]Man(b1-4)GlcNAc(b1-4)GlcNAc
# Summary of the method: as §1
# [11] = biological target: Gal(b1-4)GlcNAc(b1-2)[Gal(b1-4)GlcNAc(b1-4)]Man(a1-3)[Gal(b1-4)GlcNAc(b1-2)[Gal(b1-4)GlcNAc(b1-6)]Man(a1-6)]Man(b1-4)GlcNAc(b1-4)GlcNAc
# Summary of the method: as §1
# [12] = biological target: Gal(b1-4)GlcNAc(b1-2)[Gal(b1-4)GlcNAc(b1-4)]Man(a1-3)[GlcNAc(b1-4)][Gal(b1-4)GlcNAc(b1-2)Man(a1-6)]Man(b1-4)GlcNAc(b1-4)GlcNAc
# Summary of the method: as §1
# [13] = biological target: Gal(b1-4)GlcNAc(b1-2)[Gal(b1-4)GlcNAc(b1-4)]Man(a1-3)[GlcNAc(b1-4)][Gal(b1-4)GlcNAc(b1-2)[Gal(b1-4)GlcNAc(b1-6)]Man(a1-6)]Man(b1-4)GlcNAc(b1-4)GlcNAc
# Summary of the method: as §1
# [14] = biological target: Gal(b1-4)GlcNAc(b1-2)[Gal(b1-4)GlcNAc(b1-6)]Man(a1-6)[Gal(b1-4)GlcNAc(b1-2)Man(a1-3)]Man(b1-4)GlcNAc(b1-4)GlcNAc
# Summary of the method: as §1
# [15] = biological target: Gal(b1-4)GlcNAc(b1-2)[Gal(b1-4)GlcNAc(b1-6)]Man(a1-6)[Gal(b1-4)GlcNAc(b1-2)Man(a1-3)]Man(b1-4)GlcNAc(b1-4)[Fuc(a1-6)]GlcNAc
# Summary of the method: as §1
# [16] = biological target: Gal(b1-4)GlcNAc(b1-2)[Gal(b1-4)GlcNAc(b1-6)]Man(a1-6)[GlcNAc(b1-4)][Gal(b1-4)GlcNAc(b1-2)Man(a1-3)]Man(b1-4)GlcNAc(b1-4)GlcNAc
# Summary of the method: as §1
# [17] = biological target: Gal(b1-4)GlcNAc(b1-2)[Gal(b1-4)GlcNAc(b1-6)]Man(a1-6)[GlcNAc(b1-4)][Gal(b1-4)GlcNAc(b1-2)[Gal(b1-4)GlcNAc(b1-4)]Man(a1-3)]Man(b1-4)GlcNAc(b1-4)[Fuc(a1-6)]GlcNAc
# Summary of the method: as §1
# [18] = biological target: Gal(b1-4)GlcNAc(b1-3)Gal(b1-3)GalNAc
# Summary of the method: as §1
# [19] = biological target: Gal(b1-4)GlcNAc(b1-3)Gal(b1-3)GlcNAc
# Summary of the method: as §1
binder,measurement,setting,value
SynCAM (Mus musculus) (protein) MASAVLPSGSQCAAAAAVAAAAAPPGLRLRLLLLLLSAAALIPTGDGQNLFTKDVTVIEGEVATISCQVNKSDDSVIQLLNPNRQTIYFRDFRPLKDSRFQLLNFSSSELKVSLTNVSISDEGRYFCQLYTDPPQESYTTITVLVPPRNLMIDIQKDTAVEGEEIEVNCTAMASKPATTIRWFKGNKELKGKSEVEEWSDMYTVTSQLMLKVHKEDDGVPVICQVEHPAVTGNLQTQRYLEVQYKPQVHIQMTYPLQGLTREGDAFELTCEAIGKPQPVMVTWVRVDDEMPQHAVLSGPNLFINNLNKTDNGTYRCEASNIVGKAHSDYMLYVYDPPTTIPPP,glycan array binding signal (z-score),[1],-1.12
same,glycan array binding signal (z-score),[2],-0.98
same,glycan array binding signal (z-score),[3],0.19
same,glycan array binding signal (z-score),[4],-1.32
same,glycan array binding signal (z-score),[5],-0.51
same,glycan array binding signal (z-score),[6],-1.75
same,glycan array binding signal (z-score),[7],-0.469
same,glycan array binding signal (z-score),[8],0.098
same,glycan array binding signal (z-score),[9],-0.438
same,glycan array binding signal (z-score),[10],-0.702
same,glycan array binding signal (z-score),[11],-0.042
same,glycan array binding signal (z-score),[12],-1.17
same,glycan array binding signal (z-score),[13],-0.954
same,glycan array binding signal (z-score),[14],1.57
same,glycan array binding signal (z-score),[15],0.779
same,glycan array binding signal (z-score),[16],0.244
same,glycan array binding signal (z-score),[17],0.502
same,glycan array binding signal (z-score),[18],-0.9
same,glycan array binding signal (z-score),[19],-1.11

# Reprinted at random: two entries already listed.
binder,measurement,setting,value
SynCAM (Mus musculus) (protein) MASAVLPSGSQCAAAAAVAAAAAPPGLRLRLLLLLLSAAALIPTGDGQNLFTKDVTVIEGEVATISCQVNKSDDSVIQLLNPNRQTIYFRDFRPLKDSRFQLLNFSSSELKVSLTNVSISDEGRYFCQLYTDPPQESYTTITVLVPPRNLMIDIQKDTAVEGEEIEVNCTAMASKPATTIRWFKGNKELKGKSEVEEWSDMYTVTSQLMLKVHKEDDGVPVICQVEHPAVTGNLQTQRYLEVQYKPQVHIQMTYPLQGLTREGDAFELTCEAIGKPQPVMVTWVRVDDEMPQHAVLSGPNLFINNLNKTDNGTYRCEASNIVGKAHSDYMLYVYDPPTTIPPP,glycan array binding signal (z-score),[16],0.244
same,glycan array binding signal (z-score),[8],0.098
